Laboratory results: patent publication WO2005058299A1, “Phenethanolamine derivatives for treatment of respiratory diseases” (Glaxo Group Ltd, priority 2003, dated 2005)
Where a name gives a salt, the structure may show the parent alone. Some results were stated once for a whole list of compounds, not compound by compound.

Sequences of proteins named here, by UniProt entry; tags and fusion partners are left off.
UniProt P07550, whole entry: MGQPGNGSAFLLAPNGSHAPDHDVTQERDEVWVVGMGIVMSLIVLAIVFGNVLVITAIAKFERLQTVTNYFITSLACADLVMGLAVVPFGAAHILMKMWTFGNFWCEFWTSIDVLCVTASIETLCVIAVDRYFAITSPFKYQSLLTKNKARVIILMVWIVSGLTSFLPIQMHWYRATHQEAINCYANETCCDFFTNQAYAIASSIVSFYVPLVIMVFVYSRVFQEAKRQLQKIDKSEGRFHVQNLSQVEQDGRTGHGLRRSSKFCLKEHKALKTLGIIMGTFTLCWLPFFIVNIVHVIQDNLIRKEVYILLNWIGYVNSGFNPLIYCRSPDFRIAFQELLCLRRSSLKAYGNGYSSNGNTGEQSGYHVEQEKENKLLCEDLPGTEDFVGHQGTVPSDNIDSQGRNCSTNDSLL

Assays:
[1] = molecular target: T1, human beta 2 adrenoreceptor (Homo sapiens, UniProt P07550); assay: Frog melanophore pigment dispersal assay (Method 1); format: cell-based; conditions: frog melanophores, change in light transmittance
T1 construct: expressed in transfected cells; host or cells: frog melanophores

human beta 2 receptor = molecular target: T2, human beta 2 receptor (Homo sapiens, UniProt P07550); assay: cAMP / luciferase reporter gene assay in Chinese hamster ovary cells (Method 2); format: cell-based
T2 construct: expressed in transfected cells; host or cells: Chinese hamster ovary cells (whole cells or membranes)

Row | Compound | pEC50 [1] | pEC50 (human beta 2 receptor)
1 | CC(=O)O.NS(=O)(=O)c1ccc2cccc(CCCCOCCCCCCNC[C@H](O)c3ccc(O)c(CO)c3)c2c1 [Example 1] | > 6 | 
2 | CC(=O)O.NS(=O)(=O)c1cc(CCCCOCCCCCCNC[C@H](O)c2ccc(O)c(CO)c2)cs1 [Example 2] | > 6 | > 6
3 | NS(=O)(=O)c1cccc(CCCCOCCCCCCNC[C@H](O)c2ccc(O)c(CO)c2)n1 [Example 4, formate] | > 6 | > 6
4 | CC(=O)O.NS(=O)(=O)c1ccc(CCCCOCCCCCCNC[C@H](O)c2ccc(O)c(CO)c2)s1 [Example 3] | > 6 | > 6
